Test results published in US20100254979A1 (CISTHERA, published 2010).
These are yes or no findings as the source states them, for the method shown. Binding can be weak; no strength is given.

How the values were obtained:
rabbit PAI-1 (rabbit) [1] = assay: P-ELISA (legend of FIG. 12)
rabbit PAI-1 (rabbit) [2] = assay: P-ELISA: biotinylated rabbit PAI-1 on Neutravidin-coated plate, HRP-conjugated secondary antibody, O.D. 450
rabbit PAI-1 (rabbit) [3] = assay: P-ELISA

- binding (rabbit PAI-1 (rabbit) [1]): binds
- binding (rabbit PAI-1 (rabbit) [2]): binds
- binding (rabbit PAI-1 (rabbit) [3]): binds
B1: CT140 (humanized 33B8 anti-PAI-1 antibody, IgG4 with IgG1 hinge) (antibody, V domains shown)
VH: QVQLVQSGAEVKKPGASVKVSCKASGYTFTNYGMNWVRQAPGQGLEWMGWINTYTGEPTYTDDFKGRFTMTLDTSISTAYMELSRLRSDDTAVYYCAKDVSGFVFDYWGQGTLVTVSS
VL: DIVMTQSPDSLAVSLGERATINCKSSQSLLNIIKQKNCLAWYQQKPGQPPKLLIYWASTRESGVPDRFSGSGSGTDFTLTISSLQAEDVAVYYCQQYYSYPYTFGQGTKLEIKR
notes: The IgG4 hinge was replaced by that of IgG1; also called hP-1; humanized mAb CT140
